Earlier results on one compound are cited in article PMC10586506 (Drug Metabolism and Disposition, 2023).

This data set relates to mouse Oct3. As to conditions: read-out: IC50 mouse Oct3; ref Minematsu and Giacomini, 2011; cited from earlier work.

The term IC50 denotes the concentration at which inhibition is half-maximal. For `Cc1ccc(NC(=O)c2ccc(CN3CCN(C)CC3)cc2)cc1Nc1nccc(-c2cccnc2)n1` [Imatinib, imatinib], the IC50 is 10 µM.
